Data source: PubChem BioAssay AID1259308 (NCATS, 2017)
The whole screen tested about 59,000 reagents; below is a random part of them. About 1,510 of them (2.6%) count as active. 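Calls use total luciferase alone and ignore viability, so some active siRNAs may act by altering cell number.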 Entries without a mark were called inactive. Not all columns of the deposit are shown.

Purpose: 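Candidate targets for better recombinant protein yield in mammalian cells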 (primary screen)
Cell system: human HEK293 embryonic kidney cells stably expressing firefly luciferase (HEK-CMV-Luc2-Hygro)
Reagents: single siRNA against human genes, 0.8 pmol siRNA per well
Time to read-out: 72 h
Detection: 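Luciferase light (ONE-Glo) measured on one replicate plate set and viability (CellTiter-Glo) on the other, scaled to a negative control siRNA, with robust z-scores and luciferase per cell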
Direction: total luciferase, z-score and total luciferase, % of control: higher = more reporter protein produced; luciferase per cell, z-score: higher = more reporter output per viable cell
Call rule: 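Active when the median/MAD z-score for overall luciferase is greater than 3; a gene was taken forward for validation with new siRNAs if at least two of its three siRNAs passed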
Meaning of the calls: active = raised luciferase; inactive = no rise

gene | PubChem SID | total luciferase, z-score | total luciferase, % of control | luciferase per cell, z-score
PRPF18 | SID160720334 | -1.03 | 61.3 | 0.368
PRPF18 | SID160720335 | -1.86 | 44.9 | -0.458
PRPF18 | SID160720336 | -0.527 | 71.4 | 0.24
FAAP24 | SID160753980 | 0.45 | 90.8 | 0.506
FAAP24 | SID160753981 | -0.427 | 73.4 | -0.817
FAAP24 | SID160753982 | -0.0377 | 81.1 | -0.188
TAB2 | SID160735492 | -0.00535 | 81.8 | -0.298
TAB2 | SID160735493 | -0.731 | 67.3 | -0.548
TAB2 | SID160735494 | 1.79 | 118 | 1.06
OR51B6 | SID160766342 | 2.02 | 122 | 1.49
OR51B6 | SID160766343 | 3.48 (active) | 151 | 3.52
OR51B6 | SID160766344 | 0.7 | 95.8 | 0.289
DLGAP1 | SID160721768 | -0.294 | 76 | -0.261
DLGAP1 | SID160721769 | -0.733 | 67.3 | -0.946
DLGAP1 | SID160721770 | -0.117 | 79.6 | -0.517
DLGAP1 | SID160765862 | -0.0475 | 80.9 | 0.158
DLGAP1 | SID160765863 | -0.634 | 69.3 | -0.00946
DLGAP1 | SID160765864 | 1.06 | 103 | 0.587
WWP2 | SID160727881 | 0.222 | 86.3 | -0.424
WWP2 | SID160727882 | -0.76 | 66.8 | -0.761
WWP2 | SID160727883 | 2.52 | 132 | 1.78
IFNK | SID160745171 | -0.0122 | 81.6 | -0.307
IFNK | SID160745172 | -0.242 | 77.1 | -0.464
IFNK | SID160745173 | 0.782 | 97.4 | 1.14

Part of the list above in another layout:
gene	PubChem SID	total luciferase, z-score	total luciferase, % of control	luciferase per cell, z-score
IFNK	SID160745172	-0.242	77.1	-0.464
IFNK	SID160745173	0.782	97.4	1.14
